Measurements reported in PubChem BioAssay AID1159578 (Peter MacCallum Cancer Centre, 2015)

Screen: 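Knock-downs that alter how fast lymphatic endothelial cells migrate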 (primary screen)
Cell system: human lymphatic endothelial cells
Reagents: siRNA pool against human genes, 40 nM
Timing: 48 h after transfection
Measurement: 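Cells stained with dye and imaged after a scratch; covered wound area and nuclei counted, duplicates averaged, migration set against mock wells and turned into a robust z-score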
Direction: migration robust z-score: higher = faster migration into the scratch; migration relative to mock: higher = more scratch area covered than mock; nuclei per well: higher = more cells in the well
Call rule: 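Pools averaging fewer than 3300 nuclei are never called; remaining pools count as changed when migration robust z lies outside -2 to 2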
Calls: active = migration changed; inactive = no migration change, or too few cells
Shown is a random part of about 18,000 reagents tested. Of all reagents, about 1,030 (5.7%) are marked active. 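Inactive calls also include pools with fewer than 3300 nuclei, whose migration was not assessed.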 Raw values vary from plate to plate and are shown uncorrected.

no.	gene	PubChem SID	migration robust z-score	migration class with cell-count check	migration relative to mock	nuclei per well, duplicate mean	Outcome
1	DOCK8-AS1 (GeneID 157983)	SID255363643	1.06	migration z between -2 and 2; enough cells	1.16	7073	inactive
2	MFAP5 (GeneID 8076)	SID255353382	-0.27	migration z between -2 and 2; enough cells	0.82	4814	inactive
3	BBOF1 (GeneID 80127)	SID255360660	1.2	migration z between -2 and 2; enough cells	1.19	6834	inactive
4	LINC02875 (GeneID 388407)	SID255365489	0.32	migration z between -2 and 2; enough cells	0.97	5278	inactive
5	CCDC69 (GeneID 26112)	SID255356672	0.94	migration z between -2 and 2; enough cells	1.13	6028	inactive
6	KLHL20 (GeneID 27252)	SID255356997	0.05	migration z between -2 and 2; enough cells	0.89	5700	inactive
7	RUFY1 (GeneID 80230)	SID255360718	0.28	migration z between -2 and 2; enough cells	0.86	5824	inactive
8	GHITM (GeneID 27069)	SID255356900	1.12	migration z between -2 and 2; enough cells	1.18	6288	inactive
9	SRRM4 (GeneID 84530)	SID255361400	0.28	migration z between -2 and 2; enough cells	0.96	5484	inactive
10	ZNF582 (GeneID 147948)	SID255363354	0.06	migration z between -2 and 2; enough cells	0.9	5170	inactive
11	CCDC9 (GeneID 26093)	SID255356663	0.41	migration z between -2 and 2; enough cells	0.99	5340	inactive
12	CTNNBIP1 (GeneID 56998)	SID255359223	-0.47	migration z between -2 and 2; enough cells	0.76	6213	inactive
13	TPST2 (GeneID 8459)	SID255353569	-3.92	migration z below -2; enough cells	0.05	6066	active
14	KDM1A (GeneID 23028)	SID255355937	0.8	migration z between -2 and 2; enough cells	0.96	6200	inactive
15	NCAPD3 (GeneID 23310)	SID255356151	0.48	migration z between -2 and 2; enough cells	1.02	5298	inactive
16	PSAT1 (GeneID 29968)	SID255357253	-1.12	migration z between -2 and 2; enough cells	0.59	6418	inactive
17	MRPL22 (GeneID 29093)	SID255357133	1.23	migration z between -2 and 2; enough cells	1.21	5038	inactive
18	DAZAP2 (GeneID 9802)	SID255354568	0.25	migration z between -2 and 2; enough cells	0.95	5414	inactive
19	NES (GeneID 10763)	SID255355333	-0.69	migration z between -2 and 2; enough cells	0.7	5165	inactive
20	DPPA3 (GeneID 359787)	SID255365304	0.84	migration z between -2 and 2; enough cells	1.1	5502	inactive
21	XIAP (GeneID 331)	SID255348340	0.91	migration z between -2 and 2; enough cells	0.98	6442	inactive
22	NDUFV1 (GeneID 4723)	SID255351184	0.08	migration z between -2 and 2; enough cells	0.82	5786	inactive
23	RFC1 (GeneID 5981)	SID255352095	0.42	migration z between -2 and 2; enough cells	0.88	6182	inactive
24	UBE2Q2 (GeneID 92912)	SID255362043	1.09	migration z between -2 and 2; enough cells	1.01	4710	inactive
25	HDHD3 (GeneID 81932)	SID255360984	-0.26	migration z between -2 and 2; enough cells	0.75	6077	inactive
26	DUSP22 (GeneID 56940)	SID255359181	-0.96	migration z between -2 and 2; enough cells	0.62	6386	inactive
27	MME (GeneID 4311)	SID255350990	0.46	migration z between -2 and 2; enough cells	0.9	5700	inactive
28	HAS2 (GeneID 3037)	SID255350147	1.27	migration z between -2 and 2; enough cells	1.05	7142	inactive
29	HHLA2 (GeneID 11148)	SID255355631	-0.32	migration z between -2 and 2; enough cells	0.8	5606	inactive
30	C20orf204 (GeneID 284739)	SID255364811	-1.52	migration z between -2 and 2; enough cells	0.49	6721	inactive
31	FMR1NB (GeneID 158521)	SID255363668	1.18	migration z between -2 and 2; enough cells	1.19	6402	inactive

Part of the list above in another layout:
NDUFV1 (GeneID 4723) [SID255351184]: migration robust z-score = 0.08; migration class with cell-count check = migration z between -2 and 2; enough cells; migration relative to mock = 0.82; nuclei per well, duplicate mean = 5786; Outcome = inactive
RFC1 (GeneID 5981) [SID255352095]: migration robust z-score = 0.42; migration class with cell-count check = migration z between -2 and 2; enough cells; migration relative to mock = 0.88; nuclei per well, duplicate mean = 6182; Outcome = inactive
UBE2Q2 (GeneID 92912) [SID255362043]: migration robust z-score = 1.09; migration class with cell-count check = migration z between -2 and 2; enough cells; migration relative to mock = 1.01; nuclei per well, duplicate mean = 4710; Outcome = inactive

The list goes on:
no.	gene	PubChem SID	migration robust z-score	migration class with cell-count check	migration relative to mock	nuclei per well, duplicate mean	Outcome
32	POP5 (GeneID 51367)	SID255357680	0.02	migration z between -2 and 2; enough cells	0.89	5882	inactive
33	CHST3 (GeneID 9469)	SID255354300	-0.5	migration z between -2 and 2; enough cells	0.71	4552	inactive
34	TRIM47 (GeneID 91107)	SID255361886	-1.19	migration z between -2 and 2; enough cells	0.57	6454	inactive
35	EPG5 (GeneID 57724)	SID255359578	-1.23	migration z between -2 and 2; enough cells	0.56	3876	inactive
36	ZNF574 (GeneID 64763)	SID255359982	-1.62	under 3300 nuclei; migration not judged	0.46	3186	inactive
37	MUC21 (GeneID 394263)	SID255365712	1.75	migration z between -2 and 2; enough cells	1.34	6782	inactive
38	PNMA1 (GeneID 9240)	SID255354137	0.72	migration z between -2 and 2; enough cells	1.07	5299	inactive
39	HEXA (GeneID 3073)	SID255350171	-0.36	migration z between -2 and 2; enough cells	0.74	5874	inactive
40	MSX1 (GeneID 4487)	SID255351043	-0.6	migration z between -2 and 2; enough cells	0.69	6033	inactive
41	XAF1 (GeneID 54739)	SID255358142	1.41	migration z between -2 and 2; enough cells	1.25	7362	inactive
42	SH2B2 (GeneID 10603)	SID255355216	-0.56	migration z between -2 and 2; enough cells	0.74	5326	inactive
43	OR5A1 (GeneID 219982)	SID255364226	-0.27	migration z between -2 and 2; enough cells	0.81	6363	inactive
44	POLR1G (GeneID 10849)	SID255355389	-1.28	migration z between -2 and 2; enough cells	0.55	4212	inactive
45	PTMA (GeneID 5757)	SID255351940	-5.27	under 3300 nuclei; migration not judged	-0.21	1192	inactive
46	PDYN (GeneID 5173)	SID255351498	0.6	migration z between -2 and 2; enough cells	1.04	6610	inactive
47	CERS4 (GeneID 79603)	SID255360324	-1.55	migration z between -2 and 2; enough cells	0.48	5115	inactive
48	TTC9B (GeneID 148014)	SID255363359	0.08	migration z between -2 and 2; enough cells	0.9	4322	inactive
49	OR6T1 (GeneID 219874)	SID255364208	0.26	migration z between -2 and 2; enough cells	0.96	5390	inactive
50	SCNN1G (GeneID 6340)	SID255352314	-0.26	migration z between -2 and 2; enough cells	0.76	7412	inactive
51	LOC100288884 (GeneID 100288884)	SID255365584	-0.09	migration z between -2 and 2; enough cells	0.86	4864	inactive
52	SERPINB4 (GeneID 6318)	SID255352295	0.82	migration z between -2 and 2; enough cells	1.1	6418	inactive
53	ABHD14B (GeneID 84836)	SID255361522	-1.77	migration z between -2 and 2; enough cells	0.46	7026	inactive
54	MRPL14 (GeneID 64928)	SID255360054	0.02	migration z between -2 and 2; enough cells	0.89	6444	inactive
55	MYB (GeneID 4602)	SID255351083	0.73	migration z between -2 and 2; enough cells	0.94	6215	inactive
56	HPS3 (GeneID 84343)	SID255361349	0.29	migration z between -2 and 2; enough cells	0.96	5254	inactive
57	AGR3 (GeneID 155465)	SID255363619	1.12	migration z between -2 and 2; enough cells	1.17	5704	inactive
